These are yes or no findings as the source states them, for the method shown. In cells and extracts the contact can be indirect. Some entries that bind do so weakly or less than the wild type. For part of these data: Sequences can lack the tags named with a protein.
T1: SFB-USP8 (human) (UniProt P40818)
T1 sequence: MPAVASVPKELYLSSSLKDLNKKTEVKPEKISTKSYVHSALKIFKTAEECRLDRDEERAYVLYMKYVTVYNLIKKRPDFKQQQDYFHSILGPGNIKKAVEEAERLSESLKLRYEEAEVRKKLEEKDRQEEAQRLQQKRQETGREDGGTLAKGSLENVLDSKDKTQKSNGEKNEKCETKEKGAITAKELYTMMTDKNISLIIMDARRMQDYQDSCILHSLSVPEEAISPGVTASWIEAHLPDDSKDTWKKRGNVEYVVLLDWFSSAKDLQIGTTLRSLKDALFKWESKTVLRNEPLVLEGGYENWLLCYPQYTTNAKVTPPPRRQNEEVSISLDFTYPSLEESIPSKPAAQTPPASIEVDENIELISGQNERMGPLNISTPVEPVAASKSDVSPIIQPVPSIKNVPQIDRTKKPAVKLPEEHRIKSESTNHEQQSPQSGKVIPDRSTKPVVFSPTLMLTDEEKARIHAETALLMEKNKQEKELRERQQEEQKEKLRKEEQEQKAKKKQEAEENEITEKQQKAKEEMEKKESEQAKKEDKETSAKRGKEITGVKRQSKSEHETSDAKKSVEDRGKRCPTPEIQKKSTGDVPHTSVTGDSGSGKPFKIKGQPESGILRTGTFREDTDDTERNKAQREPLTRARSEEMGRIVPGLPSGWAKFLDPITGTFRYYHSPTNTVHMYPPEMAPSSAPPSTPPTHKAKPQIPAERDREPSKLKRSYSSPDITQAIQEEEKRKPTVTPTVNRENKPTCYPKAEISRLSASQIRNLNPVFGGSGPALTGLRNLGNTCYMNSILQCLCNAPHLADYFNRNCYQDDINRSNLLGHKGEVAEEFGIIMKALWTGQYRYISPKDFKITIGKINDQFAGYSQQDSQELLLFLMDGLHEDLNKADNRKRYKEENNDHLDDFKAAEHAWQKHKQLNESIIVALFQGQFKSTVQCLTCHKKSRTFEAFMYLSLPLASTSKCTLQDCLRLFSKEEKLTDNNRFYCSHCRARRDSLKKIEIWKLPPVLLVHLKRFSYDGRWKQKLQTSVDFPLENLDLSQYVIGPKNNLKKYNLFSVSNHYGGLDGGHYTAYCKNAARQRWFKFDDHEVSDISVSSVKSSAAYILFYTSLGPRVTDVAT

T2: USP8 (construct of the supplementary figures not shown) (human) (UniProt P40818)
T2 sequence: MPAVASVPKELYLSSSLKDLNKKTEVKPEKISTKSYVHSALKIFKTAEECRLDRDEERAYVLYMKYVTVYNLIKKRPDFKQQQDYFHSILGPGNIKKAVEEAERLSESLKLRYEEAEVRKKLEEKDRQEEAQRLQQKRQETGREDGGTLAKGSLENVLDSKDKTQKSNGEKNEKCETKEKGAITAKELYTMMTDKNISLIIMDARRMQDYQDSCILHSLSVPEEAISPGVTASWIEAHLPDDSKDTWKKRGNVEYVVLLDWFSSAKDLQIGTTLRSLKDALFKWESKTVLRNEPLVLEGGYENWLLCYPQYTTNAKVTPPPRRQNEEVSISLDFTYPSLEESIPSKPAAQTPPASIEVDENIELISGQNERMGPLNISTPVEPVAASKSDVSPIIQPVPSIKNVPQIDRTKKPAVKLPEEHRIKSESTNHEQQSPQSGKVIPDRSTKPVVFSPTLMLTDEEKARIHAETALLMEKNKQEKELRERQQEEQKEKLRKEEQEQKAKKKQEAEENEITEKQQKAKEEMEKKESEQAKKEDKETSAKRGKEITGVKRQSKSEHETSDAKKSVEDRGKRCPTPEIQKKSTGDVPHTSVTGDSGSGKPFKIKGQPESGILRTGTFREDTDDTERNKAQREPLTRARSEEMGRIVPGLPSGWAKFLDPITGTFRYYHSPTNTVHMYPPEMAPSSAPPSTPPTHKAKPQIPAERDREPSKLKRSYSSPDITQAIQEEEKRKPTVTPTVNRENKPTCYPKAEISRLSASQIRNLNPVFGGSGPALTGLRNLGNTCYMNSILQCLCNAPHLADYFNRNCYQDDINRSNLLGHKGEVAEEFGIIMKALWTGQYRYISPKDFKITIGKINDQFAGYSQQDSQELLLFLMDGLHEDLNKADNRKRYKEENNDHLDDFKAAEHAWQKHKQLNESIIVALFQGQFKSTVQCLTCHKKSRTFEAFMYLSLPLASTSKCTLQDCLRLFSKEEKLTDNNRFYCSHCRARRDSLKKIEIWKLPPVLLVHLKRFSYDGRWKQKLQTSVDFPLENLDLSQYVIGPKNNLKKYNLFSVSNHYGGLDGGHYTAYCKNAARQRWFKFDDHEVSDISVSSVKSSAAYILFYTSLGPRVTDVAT


Key:
SFB-USP8 (human) [1] = target: T1, SFB-USP8 (human); assay: pull-down; HEK293T cells co-transfected; NP-40 lysis buffer (20 mM Tris-HCl pH 8.0, 150 mM NaCl, 1% NP-40, 10% glycerol, 2 mM EDTA); S-protein agarose at 4 °C overnight; immunoblot
SFB-USP8 (human) [2] = target: T1, SFB-USP8 (human); assay: co-IP; HEK293T cells transfected with USP8, MDA5 and empty vector or the indicated dose of HA-AKT1; NP-40 lysis buffer; Anti-Myc or S-protein agarose at 4 °C overnight
[3] = target: T2, USP8 (construct of the supplementary figures not shown) (human); assay: co-IP; with or without EMCV infection; cells, baits and constructs not shown (Figure S5A,E)

| Binder | binding (SFB-USP8 (human) [1]) | binding (SFB-USP8 (human) [2]) | binding [3] |
| --- | --- | --- | --- |
| Myc-MDA5 (protein, UniProt Q9BYX4 1-1025) MSNGYSTDENFRYLISCFRARVKMYIQVEPVLDYLTFLPAEVKEQIQRTVATSGNMQAVELLLSTLEKGVWHLGWTREFVEALRRTGSPLAARYMNPELTDLPSPSFENAHDEYLQLLNLLQPTLVDKLLVRDVLDKCMEEELLTIEDRNRIAAAENNGNESGVRELLKRIVQKENWFSAFLNVLRQTGNNELVQELTGSDCSESNAEIENLSQVDGPQVEEQLLSTTVQPNLEKEVWGMENNSSESSFADSSVVSESDTSLAEGSVSCLDESLGHNSNMGSDSGTMGSDSDEENVAARASPEPELQLRPYQMEVAQPALEGKNIIICLPTGSGKTRVAVYIAKDHLDKKKKASEPGKVIVLVNKVLLVEQLFRKEFQPFLKKWYRVIGLSGDTQLKISFPEVVKSCDIIISTAQILENSLLNLENGEDAGVQLSDFSLIIIDECHHTNKEAVYNNIMRHYLMQKLKNNRLKKENKPVIPLPQILGLTASPGVGGATKQAKAEEHILKLCANLDAFTIKTVKENLDQLKNQIQEPCKKFAIADATREDPFKEKLLEIMTRIQTYCQMSPMSDFGTQPYEQWAIQMEKKAAKEGNRKERVCAEHLRKYNEALQINDTIRMIDAYTHLETFYNEEKDKKFAVIEDDSDEGGDDEYCDGDEDEDDLKKPLKLDETDRFLMTLFFENNKMLKRLAENPEYENEKLTKLRNTIMEQYTRTEESARGIIFTKTRQSAYALSQWITENEKFAEVGVKAHHLIGAGHSSEFKPMTQNEQKEVISKFRTGKINLLIATTVAEEGLDIKECNIVIRYGLVTNEIAMVQARGRARADESTYVLVAHSGSGVIEHETVNDFREKMMYKAIHCVQNMKPEEYAHKILELQMQSIMEKKMKTKRNIAKHYKNNPSLITFLCKNCSVLACSGEDIHVIEKMHHVNMTPEFKELYIVRENKALQKKCADYQINGEIICKCGQAWGTMMVHKGLDLPCLKIRNFVVVFKNNSTKKQYKKWVELPITFPNLDYSECCLFSDED | binds | binds | – |
| MDA5 (construct of the supplementary figures not shown) (protein, UniProt Q9BYX4 1-1025) MSNGYSTDENFRYLISCFRARVKMYIQVEPVLDYLTFLPAEVKEQIQRTVATSGNMQAVELLLSTLEKGVWHLGWTREFVEALRRTGSPLAARYMNPELTDLPSPSFENAHDEYLQLLNLLQPTLVDKLLVRDVLDKCMEEELLTIEDRNRIAAAENNGNESGVRELLKRIVQKENWFSAFLNVLRQTGNNELVQELTGSDCSESNAEIENLSQVDGPQVEEQLLSTTVQPNLEKEVWGMENNSSESSFADSSVVSESDTSLAEGSVSCLDESLGHNSNMGSDSGTMGSDSDEENVAARASPEPELQLRPYQMEVAQPALEGKNIIICLPTGSGKTRVAVYIAKDHLDKKKKASEPGKVIVLVNKVLLVEQLFRKEFQPFLKKWYRVIGLSGDTQLKISFPEVVKSCDIIISTAQILENSLLNLENGEDAGVQLSDFSLIIIDECHHTNKEAVYNNIMRHYLMQKLKNNRLKKENKPVIPLPQILGLTASPGVGGATKQAKAEEHILKLCANLDAFTIKTVKENLDQLKNQIQEPCKKFAIADATREDPFKEKLLEIMTRIQTYCQMSPMSDFGTQPYEQWAIQMEKKAAKEGNRKERVCAEHLRKYNEALQINDTIRMIDAYTHLETFYNEEKDKKFAVIEDDSDEGGDDEYCDGDEDEDDLKKPLKLDETDRFLMTLFFENNKMLKRLAENPEYENEKLTKLRNTIMEQYTRTEESARGIIFTKTRQSAYALSQWITENEKFAEVGVKAHHLIGAGHSSEFKPMTQNEQKEVISKFRTGKINLLIATTVAEEGLDIKECNIVIRYGLVTNEIAMVQARGRARADESTYVLVAHSGSGVIEHETVNDFREKMMYKAIHCVQNMKPEEYAHKILELQMQSIMEKKMKTKRNIAKHYKNNPSLITFLCKNCSVLACSGEDIHVIEKMHHVNMTPEFKELYIVRENKALQKKCADYQINGEIICKCGQAWGTMMVHKGLDLPCLKIRNFVVVFKNNSTKKQYKKWVELPITFPNLDYSECCLFSDED | – | – | binds |
